Measured values from patent US20210246204A1 (Alector, published 2021).
Changes are numbered by the printed parent chain. No constants are given. Whether binding was seen depends on the method and setting. Some results given as binding are weak or reduced against the parent protein; the word gives no strength. Values belong to the binder of their own block, whether it stands above or below them.

Chains of the proteins cited; added tags and fusions are not shown. Lines headed by an entry give the natural chain unless they say otherwise; changes in a name come on top.
UniProt Q9Y286: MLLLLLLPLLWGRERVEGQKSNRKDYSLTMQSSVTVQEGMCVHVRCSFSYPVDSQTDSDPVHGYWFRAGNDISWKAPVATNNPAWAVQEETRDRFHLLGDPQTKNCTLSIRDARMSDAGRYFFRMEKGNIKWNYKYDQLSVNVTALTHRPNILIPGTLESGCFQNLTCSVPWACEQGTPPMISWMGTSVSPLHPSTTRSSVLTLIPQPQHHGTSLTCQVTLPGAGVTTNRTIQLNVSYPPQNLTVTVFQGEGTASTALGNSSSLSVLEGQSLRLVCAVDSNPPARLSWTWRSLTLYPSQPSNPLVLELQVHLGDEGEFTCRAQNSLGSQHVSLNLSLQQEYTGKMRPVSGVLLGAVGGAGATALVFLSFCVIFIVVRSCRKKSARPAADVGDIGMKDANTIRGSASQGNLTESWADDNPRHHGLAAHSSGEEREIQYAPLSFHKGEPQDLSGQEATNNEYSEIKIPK

Columns and labels:
[1] = biological target: human Siglec-7 on primary human monocyte-derived dendritic cells (human) (UniProt Q9Y286); assay: flow cytometry on primary human monocyte-derived dendritic cells, 30 min on ice, fluorescent anti-human IgG secondary antibody
[2] = biological target: human Siglec-7 on primary human monocyte-derived dendritic cells (human) (UniProt Q9Y286); assay: flow cytometry, primary human dendritic cells
[3] = biological target: histidine-tagged human Siglec-7 (NovoProtein) (human) (UniProt Q9Y286); assay: BLI

binding [1]: binds
binding [2]: binds
B1: S7AB-H8.1 (antibody, V domains shown)
VH: QVQLVQSGAEVKKPGASVKVSCKASGYAFTETWMNWVRQAPGQGLEWIGRIFPGLGHTNYAQKFQGRATLTEDTSTSTAYMELSSLRSEDTAVYYCARDYSDYYFDYWGQGTLVTVSS
VL: DIQMTQSPSSLSASVGDRVTITCRGSQDINTYLNWYQQKPGKAPKLLIYYTSRLHSGVPSRFSGSGSGTDYTLTISSLQPEDFATYYCQQGNLLPWTFGQGTKLEIK

binding [1]: binds
binding [2]: binds
B2: S7AB-H8.13 (antibody, V domains shown)
VH: B1 VH with E31G, T32Y
VL: B1 VL with Q90G, L93T

binding [3]: binds
binding [1]: binds
binding [2]: binds
B3: S7AB-H8.2 (antibody, V domains shown)
VH: B1 VH with E31M, T32A, L55Y
VL: B1 VL

binding [1]: binds
B4: S7AB-H8.18 (antibody, V domains shown)
VH: B1 VH with E31G, T32Y
VL: B1 VL with I29T, L93T

binding [3]: binds
binding [1]: binds
binding [2]: binds
B5: S7AB-H8.43 (antibody, V domains shown)
VH: B1 VH with E31G, T32Y
VL: B1 VL with L93I
notes: also called S7AB-H.43

binding [1]: binds
binding [2]: binds
B6: S7AB-H8.11 (antibody, V domains shown)
VH: B1 VH
VL: B1 VL with Q90G, L93T
